Measured values: publication PMC6881245
These are yes or no findings as the source states them, for the method shown. Some entries that bind do so weakly or less than the wild type.

The chains behind the UniProt entries cited, without tags or fusion partners. Where a name states a change or a piece, a line headed by the entry shows the natural chain unless it says otherwise. Residues count along the entry.
UniProt P02745: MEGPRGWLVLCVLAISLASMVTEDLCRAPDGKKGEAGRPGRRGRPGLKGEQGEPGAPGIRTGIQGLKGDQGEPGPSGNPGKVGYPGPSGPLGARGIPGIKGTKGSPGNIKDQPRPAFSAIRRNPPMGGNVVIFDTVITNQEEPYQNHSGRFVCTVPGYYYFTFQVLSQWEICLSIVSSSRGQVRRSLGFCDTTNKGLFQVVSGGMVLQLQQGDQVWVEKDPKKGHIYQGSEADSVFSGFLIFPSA
UniProt P04275, residues 764-2813: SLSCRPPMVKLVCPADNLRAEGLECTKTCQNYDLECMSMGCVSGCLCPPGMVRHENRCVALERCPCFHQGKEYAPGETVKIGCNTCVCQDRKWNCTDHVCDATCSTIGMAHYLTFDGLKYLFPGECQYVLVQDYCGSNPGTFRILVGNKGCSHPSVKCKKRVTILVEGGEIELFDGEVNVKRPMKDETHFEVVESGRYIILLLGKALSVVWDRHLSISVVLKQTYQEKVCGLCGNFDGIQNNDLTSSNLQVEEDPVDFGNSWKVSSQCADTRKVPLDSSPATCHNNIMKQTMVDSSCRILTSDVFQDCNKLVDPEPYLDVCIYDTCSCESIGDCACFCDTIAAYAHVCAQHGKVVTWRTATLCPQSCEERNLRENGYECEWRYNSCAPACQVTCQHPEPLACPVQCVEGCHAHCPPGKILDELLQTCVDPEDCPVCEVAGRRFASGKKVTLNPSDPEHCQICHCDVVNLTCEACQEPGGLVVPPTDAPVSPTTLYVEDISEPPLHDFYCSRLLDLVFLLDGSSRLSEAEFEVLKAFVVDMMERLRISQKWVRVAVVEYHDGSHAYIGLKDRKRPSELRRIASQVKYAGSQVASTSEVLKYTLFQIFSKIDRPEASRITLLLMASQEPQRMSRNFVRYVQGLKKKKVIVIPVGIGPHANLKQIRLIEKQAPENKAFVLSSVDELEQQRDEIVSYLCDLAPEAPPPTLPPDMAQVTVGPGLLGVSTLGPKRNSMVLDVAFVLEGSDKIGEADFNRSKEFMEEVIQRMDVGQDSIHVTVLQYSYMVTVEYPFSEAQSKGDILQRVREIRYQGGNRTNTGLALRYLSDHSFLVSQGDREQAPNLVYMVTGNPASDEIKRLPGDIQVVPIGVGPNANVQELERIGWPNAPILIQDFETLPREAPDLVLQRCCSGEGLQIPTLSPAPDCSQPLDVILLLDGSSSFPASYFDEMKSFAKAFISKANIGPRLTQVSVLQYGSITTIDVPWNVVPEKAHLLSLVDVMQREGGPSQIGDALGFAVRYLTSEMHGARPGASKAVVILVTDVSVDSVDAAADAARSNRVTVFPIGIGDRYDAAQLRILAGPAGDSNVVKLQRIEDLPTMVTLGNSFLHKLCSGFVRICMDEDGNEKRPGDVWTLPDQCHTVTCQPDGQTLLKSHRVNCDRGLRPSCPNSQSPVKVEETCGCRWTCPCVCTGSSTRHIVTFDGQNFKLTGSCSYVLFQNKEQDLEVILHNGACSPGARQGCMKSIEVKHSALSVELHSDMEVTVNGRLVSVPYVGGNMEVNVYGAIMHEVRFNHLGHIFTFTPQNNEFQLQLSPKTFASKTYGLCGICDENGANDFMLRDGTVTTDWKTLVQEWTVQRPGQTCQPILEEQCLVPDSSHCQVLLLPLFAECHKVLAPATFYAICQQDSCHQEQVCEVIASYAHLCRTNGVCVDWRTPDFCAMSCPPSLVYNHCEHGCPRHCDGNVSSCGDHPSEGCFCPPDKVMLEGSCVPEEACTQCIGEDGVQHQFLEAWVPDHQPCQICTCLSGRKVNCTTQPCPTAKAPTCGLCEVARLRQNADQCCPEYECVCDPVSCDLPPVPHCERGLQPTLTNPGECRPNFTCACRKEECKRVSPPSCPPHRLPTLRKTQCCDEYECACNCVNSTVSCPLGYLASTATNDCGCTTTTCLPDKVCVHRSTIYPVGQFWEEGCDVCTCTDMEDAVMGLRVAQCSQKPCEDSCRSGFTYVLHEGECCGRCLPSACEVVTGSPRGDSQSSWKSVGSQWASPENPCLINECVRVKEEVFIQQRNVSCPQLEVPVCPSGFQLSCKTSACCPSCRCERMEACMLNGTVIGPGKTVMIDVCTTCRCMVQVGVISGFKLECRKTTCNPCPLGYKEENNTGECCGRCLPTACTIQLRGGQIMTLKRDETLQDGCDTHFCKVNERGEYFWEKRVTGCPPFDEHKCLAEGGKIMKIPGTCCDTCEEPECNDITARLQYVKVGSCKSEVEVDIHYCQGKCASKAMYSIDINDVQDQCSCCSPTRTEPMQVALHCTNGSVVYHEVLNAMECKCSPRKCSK

Experiments:
Complement C1q [1] = biological target: Complement C1q (UniProt P02745); assay: confocal microscopy of stained cholesterol crystals; CC-C1q-vWF complexes made as for flow cytometry, stained for C1q and vWF, spun onto cytoslides; Nikon A1R; both purified
Complement C1q [2] = biological target: Complement C1q (UniProt P02745); assay: imaging flow cytometry of stained cholesterol crystals; CC-C1q-vWF complexes made as for flow cytometry, stained for C1q and vWF; ImageStreamX Mark II; both purified

binding (Complement C1q [1]): binds
binding (Complement C1q [2]): binds
Substance: von Willebrand factor (from UniProt P04275 764-2813)
